Substitutions are numbered along the chain they refer to. Names and notes keep the numbering of the source. Some of these results come from one statement about several compounds together.
B1: D330A: modified iCasp9, D330A (SEQ ID NO: 24) (protein)
chain: GFGDVGALESLRGNADLAYILSMEPCGHCLIINNVNFCRESGLRTRTGSNIDCEKLRRRFSSLHFMVEVKGDLTAKKMVLALLELARQDHGALDCCVVVILSHGCQASHLQFPGAVYGTDGCPVSVEKIVNIFNGTSCPSLGGKPKLFFIQACGGEQKDHGFEVASTSPEDESPGSNPEPDATPFQEGLRTFDQLAAISSLPTPSDIFVSYSTFPGFVSWRDPKSGSWYVETLDDIFEQWAHSEDLQSLLLRVANAVSVKGIYKQMPGCFNFLRKKLFFKTS
B2: N405Q: modified iCasp9, N405Q (SEQ ID NO: 26) (protein)
chain: B1 chain with A196D, N271Q
B3: D330A-N405Q: modified iCasp9 double mutant (SEQ ID NO: 28) (protein)
chain: B1 chain with N271Q

Tested on: HEK293T/16 cells
Test: Secreted alkaline phosphatase (SEAP)-based surrogate killing assay of iCasp9 mutants
Assay type: cell-based, human
Details: read-out: estimated IC50 for AP1903; based on the SEAP assay
Experimental: Early passage HEK293T/16 cells (ATCC, Manassas, Va.) were maintained in IMDM, GlutaMAX™ (Life Technologies, Carlsbad, Calif.) supplemented with 10% FBS, 100 U/mL penicillin, and 100 […] until transfection in a humidified, 37° C., 5% CO2/95% air atmosphere. Cells in logarithmic-phase growth were transiently transfected with 800 ng to 2 μg of expression plasmid encoding iCasp9 mutants and 500 ng of an expression plasmid encoding SRα promoter driven SEAP per million cells in 15-mL conical tubes. […] GeneJammer® Transfection Reagent at a ratio of 3 μl per ug of plasmid DNA was used to transiently transfect HEK293T/16 cells in the absence of antibiotics. 100 μl or 2 mL of the transfection mixture was added to each well in 96-well or 6-well plate, respectively.
Briefly, after 65° C. heat denaturation for 45 minutes to reduce background caused by endogenous (and serum-derived) alkaline phosphatases that are sensitive to heat, 5 μl of supernatants was added to 95 μl of PBS and added to 100 μl of substrate buffer, containing 1 μl of 100 mM 4-methylumbelliferyl phosphate (4-MUP; Sigma, St. Louis, Mo.) re-suspended in 2 M diethanolamine. Hydrolysis of 4-MUP by SEAP produces a fluorescent […] with excitation/emission (355/460 nm), which can be easily measured. Assays were performed in black opaque 96-well plates to minimize fluorescence leakage between wells. […] of the mixture was seeded onto each well of a 96-well plate. […] For the assay, 4-methylumbelliferyl phosphate substrate was hydrolyzed by SEAP to 4-methylumbelliferon, a metabolite that can be excited with 364 nm and detected with an emission filter of 448 nm. Since SEAP is used as a marker for cell viability, reduced SEAP reading corresponds with increased iCaspase-9 activities.

| Molecule | IC50 |
| --- | --- |
| B1 | < 6 µM |
| B2 | < 6 µM |
| B3 | < 6 µM |

Source: patent US20230065562A1, “DUAL CONTROLS FOR THERAPEUTIC CELL ACTIVATION OR ELIMINATION” (Bellicum Pharmaceuticals, Inc., priority 2015, published 2023)
